This is one part of the list. Further columns of the screen follow, without active or inactive calls. The list favours compounds with an active or inconclusive main result. The note in brackets gives the kind of curve behind each potency; many fits are weak.
Assay: qHTS Assay for Lipid Storage Modulators in Drosophila S3 Cells;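 for cell number change: cells counted by Cell Tracker Red CMTPX staining in the red channel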
Conditions: BODIPY lipid droplet fluorescence, 18-24 h; for cell number change: measured here: cell count max response, cells fed with added oleic acid
Procedure, shortened: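 Drosophila S3 cells got compounds at several concentrations plus oleic acid (400 uM solution). Laser-scanning cytometry with 488 nm excitation read lipid droplets at 500-530 nm and cells at 575-640 nm. Percent activity was relative to 20 uM Triacsin C.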

[1] = measured here: cell number channel AC50, cells fed with added oleic acid
[2] = measured here: lipid fluorescence (Fed channel) AC50, cells fed with added oleic acid

Row | SMILES | cell number change [%] | AC50 [1] | AC50 [2]
1 | Cc1cn(S(=O)(=O)c2ccc(Br)c3ccccc23)cn1 | 0.512 | 0.116 µM [falling, full curve, poor fit] | 
2 | COc1ccc(C)cc1NC(=O)CCCN1C(=O)CCC1=O | -107 | 18.4 µM [falling, partial curve] | 
3 | CCN(CC)c1cc(C)c2cc(NC(=O)CNC(C)=O)ccc2n1 | -10.3 |  | 18.4 µM [rising, single point]
4 | O=C(COc1ccc(S(=O)(=O)NCc2ccccc2)cc1Cl)NCc1ccncc1 | -0.427 |  | 9.2 µM [falling, partial curve]
5 | CCc1nc2ccc(C(=O)O)cc2nc1CC | 4.49 |  | 0.00517 µM [falling, full curve, poor fit]
6 | CCC(C)(C)NC(=O)C(c1ccc(OC)cc1)N(CCOC)C(=O)CCC(=O)Nc1nccs1 (stereo not drawn) | -49.6 | 4.11 µM [falling, full curve] | 4.61 µM [falling, full curve]
7 | COC(=O)CSc1nc2ncccc2[nH]1 | -17.1 |  | 20.6 µM [falling, partial curve]
8 | COc1ccc(NC(=O)c2nc(S(=O)(=O)Cc3cccc(C)c3)ncc2Cl)c(OC)c1 | 84.5 | 29.1 µM [rising, single point] | 14.6 µM [falling, partial curve, poor fit]
9 | N=C1S/C(=C\c2ccco2)C(=O)N1c1ccc2c(c1)OCO2 |  |  | 4.11 µM [rising, full curve, poor fit]
10 | COC(=O)c1ccc(N2CCN(C)CC2)c(NC(=O)COc2ccc(C)cc2)c1 | -25.4 |  | 6.51 µM [rising, single point]
11 | COc1ccc(N2CCN(C(=O)c3cccc(NC(=O)c4ccco4)c3)CC2)cc1 | 27.5 |  | 8.2 µM [rising, partial curve, poor fit]
12 | Cc1ccc(C2=CSC3=NS(=O)(=O)CCN23)cc1 | -18.1 |  | 6.51 µM [falling, partial curve]
13 | COc1ccc(Cc2n[nH]c(=S)n2NC(=O)Nc2ccc(Cl)c(Cl)c2)cc1 | -30.5 | 29.1 µM [falling, single point] | 
14 | O=C(O)c1ccc(N/N=C/c2cn(-c3ccccc3)nc2-c2cccs2)cc1 |  |  | 0.731 µM [rising, single point]
15 | C=CCSc1n[nH]c(-c2ccc(OCCCC)cc2)n1 |  |  | 0.146 µM [falling, full curve]
16 | CCN(CC)CCOC(=O)c1ccc(NC(=O)CNC(=O)C2CCCCC2)cc1 | 77.9 | 4.11 µM [rising, full curve] | 13 µM [rising, partial curve]
17 | Cc1ccc(N(CN2CCCC2=O)C(=O)c2ccc(OC(C)C)cc2)cc1 | -17.1 |  | 6.51 µM [falling, partial curve]
18 | Cc1ccc(S(=O)(=O)NCc2nc3ccccc3c(=O)n2N)cc1 | -15.1 |  | 0.731 µM [falling, full curve, poor fit]
19 | COc1ccc(Br)cc1CNc1ccc(S(N)(=O)=O)cc1 |  |  | 10.3 µM [rising, partial curve]
20 | Cc1c(NC(=O)C(C)OC(=O)CNC(=O)c2ccccc2)c(=O)n(-c2ccccc2)n1C (stereo not drawn) | -24.7 | 0.164 µM [falling, full curve, poor fit] | 0.00517 µM [falling, full curve]
21 | O=C(C(=C1NCCN1)n1cncn1)c1ccccc1 | 36.3 | 23.1 µM [rising, single point] | 18.4 µM [rising, partial curve]

An excerpt from above in order of formula weight, rising:
Row | SMILES | cell number change [%] | AC50 [1] | AC50 [2]
1 | Cc1cn(S(=O)(=O)c2ccc(Br)c3ccccc23)cn1 | 0.512 | 0.116 µM [falling, full curve, poor fit] | 
11 | COc1ccc(N2CCN(C(=O)c3cccc(NC(=O)c4ccco4)c3)CC2)cc1 | 27.5 |  | 8.2 µM [rising, partial curve, poor fit]
4 | O=C(COc1ccc(S(=O)(=O)NCc2ccccc2)cc1Cl)NCc1ccncc1 | -0.427 |  | 9.2 µM [falling, partial curve]

The listing continues:

Row | SMILES | cell number change [%] | AC50 [1] | AC50 [2]
22 | CC(=O)Nc1nc(-c2ccc(Cl)cc2)nc(C)c1C(C)=O |  | 0.00461 µM [rising, full curve, poor fit] | 
23 | CCCCN(CCCC)C(=O)c1ccccc1NC(=O)CN1C(=O)c2ccccc2C1=O | 16.1 |  | 
24 | CN(Cc1nccn1C)C(=O)C1CCC(=O)N(Cc2cccc(C(F)(F)F)c2)C1 (stereo not drawn) | 2.29 |  | 3.66 µM [falling, single point]
25 | Cc1cc(C=C(C#N)C#N)c(C)n1-c1ccccc1 | 4.04 |  | 
26 | CC(=O)Nc1ccc(S(=O)(=O)NCCc2ccc(S(N)(=O)=O)cc2)cc1 | 8.94 |  | 
27 | Cn1ncc2c(Nc3cccc(C(=O)O)c3)ncnc21 | 19 |  | 18.4 µM [rising, single point]
28 | CCCC1COC(Cn2cncn2)(c2ccc(C)cc2)O1 (stereo not drawn) | -0.0718 | 0.13 µM [rising, full curve, poor fit] | 0.146 µM [rising, full curve]
29 | COc1cc(C)c(S(=O)(=O)n2nnc3ccccc32)cc1C | -80.4 | 5.8 µM [falling, full curve] | 5.8 µM [falling, full curve]
30 | CCc1ccc(C2CC(c3ccc(Cl)cc3)=NNC2=O)cc1 (stereo not drawn) | -12.9 |  | 
31 | C=C1C(=O)O[C@H]2[C@H]1[C@@H](O)CC(=C)[C@@H]1CC(=O)[C@@H](C)[C@H]21 | -26.5 |  | 29.1 µM [falling, single point]
32 | CC(O)Cc1nsc(NC(=O)c2cccs2)n1 (stereo not drawn) | -18.9 |  | 0.461 µM [falling, partial curve, poor fit]
33 | CCOc1ccccc1NC(=O)CN1CCCCCC1 | -0.275 |  | 2.91 µM [falling, full curve, poor fit]
34 | Cc1cc(C)nc(NC2=NCC(=O)N2c2ccc(F)c(Cl)c2)n1 | 19.2 |  | 
35 | CC(=O)Oc1ccc(C(=O)Nc2cccc(C(=O)NC(C)(C)C)c2)cc1 | 7.51 |  | 
36 | CCOc1ccc2nc(NC(=O)C(NS(=O)(=O)c3cccc4nsnc34)C(C)C)sc2c1 (stereo not drawn) | -38.4 | 29.1 µM [falling, single point] | 
37 | CCC(C)n1c(SCc2ccccc2)nc2ccsc2c1=O (stereo not drawn) | 5.3 |  | 9.2 µM [rising, partial curve]
38 | O=C(O)c1ccc(N/N=C/c2cccc(F)c2)cc1 | 14.2 |  | 5.8 µM [rising, partial curve]
39 | Cc1cc(NC(=O)c2cc(C(C)C)on2)nn1Cc1ccc(Cl)cc1 | 14 |  | 11.6 µM [falling, partial curve, poor fit]
40 | Cc1nnc(SCc2nnc(-c3cccs3)o2)s1 | 4.3 |  | 0.00651 µM [falling, full curve, poor fit]
41 | CCCOc1ncnc2c1[nH]c1ccccc12 | -34.2 | 8.2 µM [falling, partial curve] | 10.3 µM [falling, partial curve]
42 | CCOC(=O)N1CCN(C(=O)c2cccc(N3C(=O)NC4CC3(C)Oc3ccccc34)c2)CC1 (stereo not drawn) | -13 |  | 

Row | SMILES | cell number change [%] | AC50 [1] | AC50 [2]
43 | COC(=O)CN1C(c2ccccc2)=Nc2ccc(Cl)cc2C1c1ccccc1 (stereo not drawn) | 13.2 |  | 
44 | COc1cc(NC(=O)Cc2nn(C)c(=O)c3ccccc23)cc(OC)c1 | -33.9 | 5.8 µM [falling, partial curve] | 16.4 µM [falling, single point]
45 | O=C(NC1=NCCS1)c1ccc([N+](=O)[O-])cc1Cl | 41.1 | 13 µM [rising, single point] | 
46 | C#CCSc1nnnn1-c1ccc(Br)c(C)c1 | -45.8 | 14.6 µM [falling, partial curve, poor fit] | 
47 | CN(CCc1ccccn1)C(=O)c1cccnc1Oc1ccc(Cl)cc1 | 19.6 |  | 13 µM [rising, partial curve, poor fit]
48 | COc1ccc2cc3cc(C(=O)NCC4CCCO4)oc3nc2c1 (stereo not drawn) |  |  | 0.58 µM [rising, single point]
49 | COCCn1c(C)cc(C(=O)CSc2nnc(C3CC3)n2C2CC2)c1C | 4.14 |  | 0.116 µM [rising, full curve, poor fit]
50 | CSc1nc(-c2ccc(C)cc2)[nH]c1S(=O)(=O)c1ccccc1 | -15.6 |  | 
51 | N=C1C(c2ccccc2)=C(O)CN1c1cccc(S(N)(=O)=O)c1 | -14.6 |  | 0.184 µM [falling, full curve, poor fit]
52 | CCOc1cccc(/C=C2/NC(=O)N(CC(=O)Nc3cccc(C)c3)C2=O)c1O | 42.5 | 6.51 µM [falling, single point] | 6.51 µM [falling, single point]
53 | COc1cccc(C(=O)NC(C)c2ccc(-c3ccccc3)cc2)c1OC (stereo not drawn) | 72.2 | 29.1 µM [rising, single point] | 
54 | Cc1c(C(=O)NC(C)c2ccncc2)oc2ccccc12 (stereo not drawn) | 111 | 20.6 µM [rising, single point] | 
55 | CN(c1cccc(NC(=O)c2ccccc2N(Cc2ccccc2)S(C)(=O)=O)c1)S(C)(=O)=O | -9.85 |  | 16.4 µM [falling, single point]
56 | CC1CCCN(CCCNC(=O)C2CC(=O)N(CCc3ccccc3)C2)C1 (stereo not drawn) | -21.9 |  | 
57 | CC(NS(=O)(=O)c1ccc(Br)cc1)C(=O)NC1CCCCCC1 (stereo not drawn) | 12.2 |  | 
58 | COc1ccc(-c2[nH]ncc2-c2ccc3c(c2)OCCO3)c(O)c1 | -42.1 | 29.1 µM [falling, single point] | 0.00517 µM [rising, full curve, poor fit]
59 | CSc1nnc(C)c(=O)n1COC(=O)COc1ccccc1 |  | 0.651 µM [rising, partial curve, poor fit] | 
60 | CCn1ncc(Br)c1C(=O)Nc1ccc(C(=O)OC(C)C)cc1 | -0.679 |  | 13 µM [rising, partial curve]
61 | CCN(CC(=O)NC1CCS(=O)(=O)C1)c1nc(-c2cccnc2)nc2ccccc12 (stereo not drawn) | -20.3 |  | 4.61 µM [falling, full curve, poor fit]
62 | CCCCOc1ncnc2c1[nH]c1ccccc12 | -34.2 | 6.51 µM [falling, partial curve] | 0.366 µM [rising, partial curve]

From PubChem BioAssay AID2685 (National Center for Advancing Translational Sciences (NCATS), 2010)
